Experimental data from paper PMC4945075.
Results are given in words; binding and its absence hold for the method and conditions named. Binding seen in cells or lysates may run through a third protein. Tags and fused reporters may be left off the sequences shown.

Sequences of proteins named here, by UniProt entry; tags and fusion partners are left off.
UniProt P80244: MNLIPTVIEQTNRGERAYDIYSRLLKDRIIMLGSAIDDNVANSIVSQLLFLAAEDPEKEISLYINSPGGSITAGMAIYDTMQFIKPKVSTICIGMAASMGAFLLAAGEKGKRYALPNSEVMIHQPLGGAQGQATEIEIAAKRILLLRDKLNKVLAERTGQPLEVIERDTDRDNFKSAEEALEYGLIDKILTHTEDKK
UniProt P06224: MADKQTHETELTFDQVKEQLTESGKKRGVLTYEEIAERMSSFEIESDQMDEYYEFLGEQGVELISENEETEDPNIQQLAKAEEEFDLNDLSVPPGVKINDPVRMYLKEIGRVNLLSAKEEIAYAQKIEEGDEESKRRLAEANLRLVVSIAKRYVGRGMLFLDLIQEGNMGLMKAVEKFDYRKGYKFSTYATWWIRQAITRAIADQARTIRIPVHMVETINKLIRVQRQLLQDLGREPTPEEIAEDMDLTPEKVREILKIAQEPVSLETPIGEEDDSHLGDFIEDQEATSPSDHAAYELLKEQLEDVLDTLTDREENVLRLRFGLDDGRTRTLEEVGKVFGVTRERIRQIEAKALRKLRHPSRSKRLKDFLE

Biological target: T1, SpoIIE-3XFLAG (full length FLAG tagged SpoIIE) (B. subtilis) (UniProt P37475)
T1 sequence: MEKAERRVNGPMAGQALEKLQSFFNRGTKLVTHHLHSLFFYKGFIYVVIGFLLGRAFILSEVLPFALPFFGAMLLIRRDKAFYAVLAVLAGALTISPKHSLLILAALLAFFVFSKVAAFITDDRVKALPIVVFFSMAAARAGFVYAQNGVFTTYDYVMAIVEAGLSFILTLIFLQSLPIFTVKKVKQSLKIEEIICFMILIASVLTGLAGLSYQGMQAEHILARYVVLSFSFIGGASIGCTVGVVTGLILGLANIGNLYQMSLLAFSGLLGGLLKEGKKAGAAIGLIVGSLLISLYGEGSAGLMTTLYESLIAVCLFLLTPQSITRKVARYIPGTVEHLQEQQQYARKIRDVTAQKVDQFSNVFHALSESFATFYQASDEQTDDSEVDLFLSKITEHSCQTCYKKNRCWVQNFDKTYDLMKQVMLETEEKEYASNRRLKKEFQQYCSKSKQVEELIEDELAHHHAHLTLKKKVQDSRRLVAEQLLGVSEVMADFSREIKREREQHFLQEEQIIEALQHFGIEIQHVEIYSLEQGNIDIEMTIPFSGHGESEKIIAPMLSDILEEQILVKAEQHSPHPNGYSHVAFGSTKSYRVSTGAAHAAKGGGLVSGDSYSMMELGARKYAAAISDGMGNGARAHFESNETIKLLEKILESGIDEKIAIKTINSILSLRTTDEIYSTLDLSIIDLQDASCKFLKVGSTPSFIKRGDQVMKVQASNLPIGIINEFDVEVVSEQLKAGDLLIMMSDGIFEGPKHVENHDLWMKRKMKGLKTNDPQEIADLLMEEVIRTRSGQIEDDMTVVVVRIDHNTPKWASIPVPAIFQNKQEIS
Test: co-IP; extracts of sporulating B. subtilis cells (2.5 hours after resuspension), membrane proteins solubilized with 2% digitonin, anti-FLAG M2 magnetic beads 1 hour at 4°C, washes with 0.1% digitonin; Western blot

Row | Substance | binding
1 | ClpP (from UniProt P80244 1-197) | no binding
2 | σ^A (from UniProt P06224 1-371) | no binding
